From PubChem BioAssay AID1259415 (National Center for Advancing Translational Sciences (NCATS), 2018)
Among all 410,000 compounds or so, about 18,000 (4.4%) were called active. Inconclusive results, whose numbers are uncertain, are shown with a selection of clear calls. No stated cut-off is given here; in the data, active means activity change below about -60%; inconclusive means no clear call, values can overlap the other calls; inactive means above about -39%.

test: qHTS Assay for inhibitors of the human cytomegalovirus (HCMV); details: HFF cells, HCMV-luciferase reporter, 72 h; at 57.5 µM; hits give low values
How it was run: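 HFF cells seeded 16 h at 37C, treated with compounds, infected with luciferase-reporter HCMV at MOI 1 PFU/cell; luciferase read at 72 h post infection, normalized to buffer-only and Salinomycin controls.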
On the % scale 0 is the no-effect control and ±100 the full control effect.

| Structure (SMILES) | activity change, negative = inhibition |
| --- | --- |
| O=C(/C=C/c1ccc([N+](=O)[O-])cc1)NCCc1ccccc1 | inconclusive: -44.7% |
| COc1ccc(/C=N/NC(=O)CCn2cnc(-c3ccccc3)c2-c2ccccc2)cc1OC | inconclusive: -55.9% |
| N#Cc1ccc(NC(=O)Cn2c3[n+](c4ccc(C(F)(F)F)cc42)CCCCC3)cc1 | inconclusive: -57.9% |
| COc1ccccc1NC(=O)c1c(Br)cnn1C | inconclusive: -55.2% |
| CCNC(=S)N/N=C/c1sc(N2CCCCC2)nc1-c1cccs1 | inconclusive: -50.8% |
| O=C(COC(=O)CCC(=O)c1ccc(F)cc1)NCCc1ccccc1 | inactive: -23.8% |
| CC(=O)Nc1ccc(NC(=O)C(C)OC(=O)CCCN2C(=O)c3cccc4cccc(c34)C2=O)cc1 (stereo unspecified) | inconclusive: -40.5% |
| CCCCNc1c([N+](=O)[O-])cc(C)cc1[N+](=O)[O-] | inconclusive: -52.8% |
| Cc1ccc(C)c2[nH]c(=O)c(CCNC(=O)CC(C)(C)C)cc12 | inconclusive: -57.8% |
| CCN(CC)S(=O)(=O)c1ccc(N2CCOCC2)c(NC(=O)c2ccc(NC(C)=O)cc2)c1 | inactive: -30.7% |
| O=C(NCCc1ccncc1)Nc1ccccc1 | inconclusive: -47.4% |
| COc1cc(C)ccc1OCCCn1c(-c2ccc(Cl)cc2)nc2ccccc2c1=O | inactive: -23.4% |
| C[C@]12CCC3C(CC[C@H]4C[C@@H](O)CC[C@]34C)C1C[C@@H](O)C2=O (stereo partly specified) | inconclusive: -45.2% |
| COc1ccc(CNC(=O)c2csc(N3CCN(CCc4ccccc4)C3=O)n2)cc1OC | active: -85.9% |
| COc1ccc(CCN2CC(C(=O)NCc3cccc4[nH]ccc34)CCC2=O)cc1 (stereo unspecified) | inconclusive: -44.3% |
| CC(=O)c1sc(N)nc1C | inconclusive: -47.5% |
| CCC(=O)Nc1ccc2c(c1)ncn2-c1ccccc1C | inconclusive: -49.1% |
| CN(C(=O)COC(=O)Cn1cnc2ccccc21)C1CCCCC1 | active: -94.2% |
| CC(=O)C1=C(O)C2(C)c3c(O)c(C)c(O)c(C(C)=O)c3OC2CC1=O (stereo unspecified) | inconclusive: -43.1% |
| CCOc1cc(C(C(=O)NCC2CCCO2)N(C(=O)Cn2nnc3ccccc32)c2ccccc2C)ccc1O (stereo unspecified) | inconclusive: -44% |
| Cc1cccc(C)c1OCc1nnc(SCC(=O)O)n1-c1c(C)cccc1C | inactive: -7.29% |
| O=C(Nc1cccc(Br)c1)c1ccccc1-c1ccccc1 | inconclusive: -43.6% |

A few values from the results shown:
Entry of `C[C@]12CCC3C(CC[C@H]4C[C@@H](O)CC[C@]34C)C1C[C@@H](O)C2=O` (stereo partly specified) under activity change, negative = inhibition: inconclusive: -45.2%
Entry of `CCCCNc1c([N+](=O)[O-])cc(C)cc1[N+](=O)[O-]` under activity change, negative = inhibition: inconclusive: -52.8%
Entry of `O=C(Nc1cccc(Br)c1)c1ccccc1-c1ccccc1` under activity change, negative = inhibition: inconclusive: -43.6%

The list goes on:

| Structure (SMILES) | activity change, negative = inhibition |
| --- | --- |
| Cc1ccc(C(=O)N[C@H](C(=O)NC2CCCCC2)C(C)C)cc1 | inactive: 5.31% |
| CN(C)S(=O)(=O)N1CCC(Oc2ccc(C(=O)N3C[C@@H]4CCC[C@H]3C4)cc2)CC1 | inconclusive: -47% |
| O=C(Nc1ccccn1)C1CCN(S(=O)(=O)c2cccc3nonc23)CC1 | inconclusive: -40.8% |
| Cc1cc(C)c(S(=O)(=O)N2CCCCC2)c(C)c1N(C)S(=O)(=O)c1ccc(Cl)cc1 | inconclusive: -46.2% |
| C=CCn1c(SCC(=O)NCc2ccc3c(c2)OCO3)nc2scc(-c3ccccc3)c2c1=O | inactive: 89% |
| Cc1nn(CC2CC2)c(=O)n1-c1cccc(Cl)c1 | inconclusive: -51.6% |
| CC(C)C1C(=O)Nc2ccc(S(=O)(=O)NCc3ccc(Cl)cc3)cc21 (stereo unspecified) | inactive: -22.8% |
| CC(Sc1nnc(C2CC2)n1C1CC1)C(=O)c1ccc(Br)cc1 (stereo unspecified) | active: -62.1% |
| Cc1nc(N2CCN(Cc3ccc4c(c3)OCO4)CC2)nc2c1C(=O)CC(c1ccco1)C2 (stereo unspecified) | inconclusive: -44% |
| Cc1ccc(-c2csc(NC(=O)c3ccc(Br)cc3)c2C(=O)O)cc1 | active: -94.7% |
| CC1(c2ccccc2)NC(=O)N(CC(=O)Nc2nc(-c3ccccn3)cs2)C1=O (stereo unspecified) | inactive: 4.46% |
| COc1ccc(NC(=O)c2cc3ccccc3o2)cn1 | inactive: 4.42% |
| NS(=O)(=O)c1ccc(CNC(=S)NCc2ccc(F)cc2)cc1 | inactive: -37% |
| CCOC(=O)C1=C2SCC(=O)N2C(N)=C(C#N)C1 | inactive: 21.1% |
| COc1ccc(NC(=O)CCc2nnc3ccc(N4CCN(c5cccc(OC)c5)CC4)nn23)cc1 | inconclusive: -43.3% |
| O=C1/C(=C/c2ccc(F)cc2)Oc2cc(OC(=O)N3CCOCC3)ccc21 | inactive: 30.8% |
| CN(Cc1cc(Cl)cc(Cl)c1)[C@H]1C[C@H]2c3[nH]c4ccccc4c3CCN2C(=O)[C@H]1CO | inactive: 2.09% |
| Cc1cccc(NCC(O)Cn2cnc3c2c(=O)n(C)c(=O)n3C)c1 (stereo unspecified) | inconclusive: -40.4% |
| CC1CCN(C(=O)c2ccc(CSc3nc4ccncc4n3Cc3ccc(F)cc3)cc2)CC1 | inconclusive: -55.3% |
| CSc1nc2sc3c(c2c(=O)n1-c1ccc(C)cc1)CCCC3 | inactive: 2.55% |
| Cc1c(Br)cccc1NC(=O)C1(C)CCN1Cc1ccc(OC(C)C)cc1 (stereo unspecified) | inconclusive: -44.2% |
| Cc1ccc(C(=O)NC(=S)Nc2ccc3[nH]c(=O)[nH]c3c2)c(C)c1 | inconclusive: -41.6% |

4 of the compounds above, in CSV form:
Structure (SMILES),"activity change, negative = inhibition"
CCOC(=O)C1=C2SCC(=O)N2C(N)=C(C#N)C1,inactive: 21.1%
COc1ccc(NC(=O)CCc2nnc3ccc(N4CCN(c5cccc(OC)c5)CC4)nn23)cc1,inconclusive: -43.3%
O=C1/C(=C/c2ccc(F)cc2)Oc2cc(OC(=O)N3CCOCC3)ccc21,inactive: 30.8%
CN(Cc1cc(Cl)cc(Cl)c1)[C@H]1C[C@H]2c3[nH]c4ccccc4c3CCN2C(=O)[C@H]1CO,inactive: 2.09%

The list goes on.

| Structure (SMILES) | activity change, negative = inhibition |
| --- | --- |
| CCOC(=O)C1=C(CN(CC)Cc2ccccc2)NC(=O)NC1c1ccc(Cl)cc1 (stereo unspecified) | inconclusive: -42.2% |
| CC1=NN(c2ccccc2)C(=O)C1N=Nc1ccc(N)cc1 (stereo unspecified) | inconclusive: -53.9% |
| Clc1ccc2c(NCc3ccccc3)ccnc2c1 | active: -73.6% |
| COc1ccc(-c2csc(=NCCO)n2-c2ccccc2)cc1 | inconclusive: -56.5% |
| CN(Cc1cccs1)c1ncnc2sccc12 | active: -77.8% |
| Cc1ccc(S(=O)(=O)N2CCC(=O)N(CCOCc3cccc(Cl)c3)CC2)cc1 | active: -63.6% |
| CCS(=O)(=O)c1ccc(-c2cccc(NC(=O)c3ccco3)c2)nn1 | inactive: -34.2% |
| CN(c1ccccc1C(=O)NC1CC2CCC1C2)S(=O)(=O)c1ccccc1 (stereo unspecified) | inconclusive: -45.2% |
| Cc1ccc(-c2nc3ncccc3o2)cc1NC(=S)NC(=O)c1ccco1 | inconclusive: -46.8% |
| COc1ccc(NC(=O)C/C(C)=N/NC(=O)c2ccco2)c([N+](=O)[O-])c1 | inconclusive: -56.2% |
| COc1cccc(OC)c1C(=O)Nc1c(C(=O)N2CCN(c3ccccn3)CC2)oc2ccccc12 | inconclusive: -47.7% |
| O=C(Nc1nccs1)C1CCN(S(=O)(=O)c2ccc3c(c2)OCCCO3)CC1 | inconclusive: -40.4% |
| CN(C)c1ccc(NC(=O)/C=C/c2c(Cl)cccc2Cl)cc1 | inconclusive: -47.8% |
| C=CCOc1ccc(/C=C2\SC(=S)N(CCC(=O)O)C2=O)cc1 | inconclusive: 0% |
| CCc1ccc(-c2nc3cc(NC(=O)c4ccc(F)cc4)ccc3o2)cc1 | inactive: -20.1% |
| CC1CC(=O)N(c2ccc(N(C)Cc3ccccc3)c([N+](=O)[O-])c2)C1=O (stereo unspecified) | inconclusive: -40.5% |
| Cc1ccc(Nc2c3c(nc4ccccc24)CCC3)cc1F | inconclusive: -47.6% |
| CC(=O)C1=NN(c2ccc(Cl)cc2)C(c2ccc3c(c2)OCO3)N(C(C)=O)N1C (stereo unspecified) | inconclusive: -52.2% |
| Cc1ccc(NC(=O)CSc2nnc(CCC(=O)O)c(=O)[nH]2)cc1 | inconclusive: -46.1% |
| CCn1cc(C(=O)Nc2ccc(C)cc2[N+](=O)[O-])c(C)n1 | inconclusive: -51.1% |
| CCc1ccccc1NC(=O)CN(c1ccc(OC)cc1OC)S(=O)(=O)c1ccccc1 | inconclusive: -42.7% |
| CN(CCOc1ccc(Cl)cc1)C(=O)CN1C(=O)NC2(CCCC2)C1=O | inconclusive: -41.3% |

| Structure (SMILES) | activity change, negative = inhibition |
| --- | --- |
| O=c1[nH]c(/C(Cl)=C/c2cccc(F)c2)nc2cc(C(F)(F)F)ccc12 | inconclusive: -45.1% |
| CCCC(=O)NCc1nc2ccccc2n1CC(=O)c1ccccc1 | inconclusive: -50.6% |
| O=C(NCc1ccc(Cl)cc1)c1cc2c(s1)CS(=O)(=O)C2 | inconclusive: -40.1% |
| O=C1CC2(CCN(S(=O)(=O)c3ccccc3F)CC2)Oc2ccccc21 | inactive: -20.3% |
| CC1(N2CCCCC2)C(=O)c2ccccc2C1=O | inconclusive: -45% |
| Clc1ccc(CSc2nnc(Cn3cnc4ccccc43)o2)cc1 | active: -81.2% |
| Cc1ccc(Oc2cc(-n3nc(C)cc3C)ncn2)cc1 | inactive: 3.88% |
| CCOC(=O)C1=C(N)n2c(s/c(=C\c3ccncc3)c2=O)=C(C(=O)OCC)C1c1ccncc1 (stereo unspecified) | inconclusive: -42.3% |
| S=c1nc2ccccc2c2nc(-c3ccccc3Cl)[nH]n12 | inactive: 12.2% |
| COc1ccc(NC(=O)CN2CCN(c3ccccn3)CC2)cc1Cl | inconclusive: -51.1% |
| COc1ccccc1C(=O)COC(=O)Cn1[nH]c(=O)c2ccccc2c1=O | inconclusive: -49.5% |
| O=C1NCCCC2c3cc(O)c4ccccc4c3OC12N1CCCCC1 (stereo unspecified) | inconclusive: -52.3% |
| C[C@H](c1ccccc1)N1C[C@@H](COCc2ccccc2)Oc2cc(N3CCC[C@@H]3CO)ccc2S1(=O)=O | inactive: -5.53% |
| COc1ccc(S(=O)(=O)NCc2ccco2)cc1N(C)S(=O)(=O)c1ccccc1 | inconclusive: -44.8% |
| CN(Cc1ccccc1)C(=O)c1c[nH]c2ccc(S(=O)(=O)Nc3ccccc3F)cc2c1=O | inactive: -2.45% |
| O=C(C=Cc1ccc(OCc2ccccc2)cc1)c1c(F)cccc1F | inconclusive: -55.8% |
| O=C(NCCOc1ccccc1F)C1CCC(=O)N(CCc2cccc(F)c2)C1 (stereo unspecified) | inconclusive: -59.2% |
| O=C(Nc1ccccc1Cl)c1cc(C2CCCCN2S(=O)(=O)c2ccc(F)cc2F)on1 (stereo unspecified) | inconclusive: -40.4% |
| Cc1cccc(N=C2NN=C(c3c(C)[nH]c4ccccc34)CS2)c1 | active: -98.9% |
| CNc1ccccc1-n1ccc(-c2ccccc2)n1 | inactive: 20.1% |
